Measurements reported in PubChem BioAssay AID1224826 (NIAID, 2016)
Purpose: 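Knock-downs that raise or lower Tnf reporter signal after endotoxin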 (primary screen). System: RAW264.7 G9 macrophages from mouse bearing reporters for p65 (GFP) and the Tnf promoter (mCherry). Reagent: siRNA pool against mouse genes, 100 nM. Duration: 16 h of LPS stimulation, after 2 days of siRNA transfection. Treatment: bacterial lipopolysaccharide (Salmonella minnesota R595), 10 ng/ml. Detection: 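Imaged Tnf reporter mCherry in nuclei, minus background, normalised per plate to the median and expressed as robust z-scores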. Reading the numbers: Tnf reporter robust z-score: higher = stronger Tnf promoter reporter signal after LPS. Rule for the call: 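a well counts as active at a score of -1.3 or below (Tlr4 knock-down control median) or above 3 (raised signal); controls and wells holding fewer than 50 cells are excluded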. Calls: active = Tnf reporter clearly lowered or raised; inactive = no clear change in Tnf reporter.
Shown is one part, drawn at random, of about 17,000 deposited reagents. About 1,110 of them (6.6%) count as active. 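Active means lowered or raised reporter signal; replicate intensities are raw and not normalised per plate.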 Not all columns of the deposit are shown.

Ehhadh | Tnf reporter robust z-score: 0.25; fewer than 50 cells in well: enough cells in well; Call: inactive
Or2w1 (olfactory receptor family 2 subfamily W member 1) | Tnf reporter robust z-score: 0.44; fewer than 50 cells in well: enough cells in well; Call: inactive
Napsa (napsin A aspartic peptidase) | Tnf reporter robust z-score: -0.25; fewer than 50 cells in well: enough cells in well; Call: inactive
Zdhhc15 (zinc finger, DHHC domain containing 15) | Tnf reporter robust z-score: 1.96; fewer than 50 cells in well: enough cells in well; Call: inactive
Chac1 (ChaC, cation transport regulator 1) | Tnf reporter robust z-score: 0.74; fewer than 50 cells in well: enough cells in well; Call: inactive
Dock1 (dedicator of cytokinesis 1) | Tnf reporter robust z-score: 0.08; fewer than 50 cells in well: enough cells in well; Call: inactive
Jade2 (jade family PHD finger 2) | Tnf reporter robust z-score: -0.06; fewer than 50 cells in well: enough cells in well; Call: inactive
Cop1 (COP1, E3 ubiquitin ligase) | Tnf reporter robust z-score: -0.24; fewer than 50 cells in well: enough cells in well; Call: inactive
Fermt2 (fermitin family member 2) | Tnf reporter robust z-score: -1.16; fewer than 50 cells in well: enough cells in well; Call: inactive
Trf (transferrin) | Tnf reporter robust z-score: 0.33; fewer than 50 cells in well: enough cells in well; Call: inactive
Rps12 (ribosomal protein S12) | fewer than 50 cells in well: fewer than 50 cells per well; well left out of calls; Call: inactive
Atp5f1e (ATP synthase F1 subunit epsilon) | fewer than 50 cells in well: fewer than 50 cells per well; well left out of calls; Call: inactive
